Experimental findings from PubChem BioAssay AID493014 (National Center for Advancing Translational Sciences (NCATS), 2011) are described below.

The other results are listed elsewhere or left out. The main result of the screen is listed elsewhere. These columns were measured beside it and carry no call. Compounds called inactive in the main read-out are mostly missing here. Words in brackets tell the shape of the fitted curve; partial curves, single points and poor fits give uncertain potencies.

The experiment can be described thus: qHTS Assay to Find Inhibitors of Chronic Active B-Cell Receptor Signaling. The note with it: ABC-DLBCL IkBa-CBG/CBR reporter, luminescence ratio (green luciferase fused to IkBa over red control in TMD8 lymphoma cells), 4 h. A digest of the protocol: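 Cell line TMD8 (human ABC DLBCL), stably expressing tet-inducible CBG68-IkBa fusion and CBR; IMDM/0.5% FBS; cpd up to 46 uM; dox induction, 4 h, 37C/5% CO2; dual luminescence; green/red ratio; MG132 control.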

The mark [1] stands for this setting: measured here: CBR red luminescence, cell number.
Setting [2] is: measured here: IkBa-CBG green luminescence.

As for `O=S(=O)(CCSc1nc2ccccc2s1)c1nc2ccccc2s1`, the AC50 is, setting by setting: under setting [1], 8.2 µM [falling, partial curve]; under setting [2], 10.3 µM [rising, partial curve, poor fit]. For the compound `O=C1c2ccccc2C(=O)N1CSc1nnnn1-c1ccccc1`, the half-maximal activity concentration (AC50) under setting [1] is 0.58 µM [rising, partial curve, poor fit]. As for `CC(=O)c1sc(NC(=O)c2ccco2)nc1-c1ccccc1`, under setting [2], the AC50 is 0.58 µM [rising, full curve, poor fit]. `CC(C)CN1CCN(CC#Cc2ccccc2)CC1CCO` (configuration not stated): the AC50 under setting [1] was 35.5 µM [rising, single point]. Same read-out and setting: with `O=C(Nc1nnc(C(F)(F)F)s1)c1cccnc1` the figure was 1.84 µM [falling, full curve]; with `Cc1ccc(S(=O)(=O)N2CCC(C(=O)OCC(=O)N(Cc3ccccc3)C(C)(C)C)CC2)cc1C`, 11.6 µM [falling, partial curve, poor fit]. Same read-out and setting: with `COc1cccc(NC(=O)c2sc3nc4n(c(=O)c3c2C)CCC4)c1` the figure was 0.0891 µM [falling, full curve, poor fit]; with `CCCCOC(=O)CSc1nc2c(c(=O)[nH]c(=O)n2C)n1C/C=C(\C)Cl`, 31.6 µM [rising, single point]; with `COc1cc(/C=C2/SC(=S)N(Cc3ccccc3)C2=O)cc(OC)c1O`, 10 µM [rising, single point]. With `COC(=O)c1ccc(COC(=O)c2ccc(CO)cc2)o1`, the half-maximal activity concentration (AC50) under setting [1] is 29.1 µM [rising, single point]. Same read-out and setting: under `COc1ccc(NC(=O)COc2ccccc2)c(OC)c1` stands 7.31 µM [falling, partial curve, poor fit]. For the compound `COc1ccc(OC)c(NC(=O)NCCc2cccc(Cl)c2)c1`, the AC50 under setting [1] was 35.5 µM [rising, single point]. For the compound `COCc1cc(=O)n2[nH]c(-c3ccco3)cc2n1`, under setting [1], the AC50 was 35.5 µM [falling, single point]. The same measure, in the same setting: under `c1ccc2oc(NC3=NCN(CC4CCCO4)CN3)nc2c1` (configuration not stated) stands 9.2 µM [rising, partial curve, poor fit].

Consider `CSc1ccc(Cl)c(C(=O)Nc2ccc(Cl)cn2)c1`, for which the AC50 under setting [1] is 1 µM [falling, full curve, poor fit]. Same read-out and setting: with `COCCNC(=O)c1ccc(Cn2c(SCC(=O)NCC3CCCO3)nc3ccc(Br)cc3c2=O)cc1` (configuration not stated) the figure was 6.31 µM [falling, single point]; with `O=C(C[n+]1cc(-c2ccccc2)n2c1CCC2)OCc1ccccc1`, 20.6 µM [rising, partial curve, poor fit]; with `O=Cc1cccc(OC(=O)/C=C/c2ccco2)c1`, 15.8 µM [rising, partial curve]. Turning to `COc1ccc(C(=O)Cn2ccsc2=NC(C)=O)cc1`, the AC50 under setting [1] is 22.4 µM [rising, single point]. Consider `Clc1ccc(C[n+]2cc(-c3ccccc3)n3c2CCC3)cc1`, for which, under setting [1], the AC50 is 2.51 µM [falling, full curve, poor fit]. The same measure, in the same setting: under `O=C(O)COc1ccccc1/C=N/NC(=O)c1ccc2c(c1)OCCO2` stands 8.91 µM [falling, partial curve]; under `CCOC(=O)c1c(C)[nH]c(C(=O)COC(=O)c2cc(C)oc2C)c1C`, 0.103 µM [rising, partial curve, poor fit].

For the compound `CCOC(=O)N1CCN(Cc2c(F)cccc2F)CC1`, the AC50 under setting [1] is 32.6 µM [rising, single point].

Regarding `O=C(NN=C(Cc1ccccc1)Cc1ccccc1)c1ccccc1F`, under setting [1], the concentration at half-maximal activity (AC50) is 11.2 µM [falling, partial curve]. Regarding `S=C(Nc1ccccc1)c1nc2ccccc2s1`, the AC50 under setting [1] was 0.231 µM [rising, full curve] and the AC50 under setting [2] was 5.17 µM [falling, full curve].

In the case of `COc1ccc(NC(=O)C(c2cc3c(cc2[N+](=O)[O-])OCO3)N2CCN(C=O)CC2)cc1` (configuration not stated), the AC50 under setting [1] is 13 µM [rising, partial curve, poor fit]. Still for that read-out and setting: under `O=C(O)CSCc1cnn(-c2ccccc2)c1-n1cccc1` stands 12.6 µM [falling, single point]. The same measure, in the same setting: with `COC(=O)C(Cc1c[nH]c2ccccc12)NC(C)=O` (configuration not stated) the figure was 0.731 µM [rising, partial curve, poor fit]. The same measure, in the same setting: with `CCn1c2ccc(C)cc2c2nc3cc(C(=O)O)ccc3nc21` the figure was 29.1 µM [falling, partial curve, poor fit].

As for `Oc1ccc(-c2cn3cc(C(F)(F)F)ccc3n2)cc1`, under setting [1], the AC50 is 2.31 µM [rising, partial curve].

Take `O=C(CSc1nc2ccccc2o1)N1CCOCC1`: the AC50 under setting [1] was 0.398 µM [rising, full curve, poor fit]. The same measure, in the same setting: under `COc1ccc(-c2cn[nH]c2-c2ccc(OCc3ccc([N+](=O)[O-])cc3)cc2O)cc1OC` stands 10 µM [falling, partial curve]. Turning to `CC(CN1CCOCC1)OC(=O)c1ccc(Br)cc1` (configuration not stated), the concentration at half-maximal activity (AC50) under setting [2] was 15.8 µM [falling, single point].

With `Nc1ccc(C(=O)N2CCN(S(=O)(=O)c3ccc(Cl)s3)CC2)cc1[N+](=O)[O-]`, the AC50 under setting [1] was 23.1 µM [falling, single point].

Take `Cc1nnc2c3cnn(-c4ccc(Cl)cc4)c3ncn12`: the AC50 under setting [1] was 10 µM [rising, partial curve, poor fit].

`Cc1ccc(-c2[nH]c(-c3ccc(Cl)cc3)nc2SCC(=O)NCC2CCCO2)cc1` (configuration not stated): under setting [1], the AC50 is 2.31 µM [rising, partial curve]. Same read-out and setting: with `O=C(O)c1ccccc1C(=O)OCc1c(-c2ccccc2)ncc2ccccc12` the figure was 10.3 µM [falling, partial curve]; with `O=c1[nH]c(C2CCN(S(=O)(=O)c3ccc(S(=O)(=O)NC4CC4)cc3)CC2)nc2c1nnn2Cc1ccccc1`, 22.4 µM [falling, single point].

For `CN(C(=S)NC(=O)c1ccccc1)c1c(N)n(Cc2ccccc2)c(=O)[nH]c1=O`, the AC50 under setting [1] is 0.398 µM [rising, full curve]. With `Cc1cccc(NC(=O)C2(c3ccccc3)CC2(Cl)Cl)c1` (configuration not stated), the concentration at half-maximal activity (AC50) under setting [1] is 15.8 µM [falling, single point]. Same read-out and setting: with `CN(C)S(=O)(=O)c1ccc(Cl)c(C(=O)NNC(=O)c2ccc3c(c2)OCO3)c1` the figure was 4.61 µM [falling, full curve]. Still for that read-out and setting: under `Cn1c(C(=O)N2CCCC(C(=O)NCc3ccc4c(c3)OCO4)C2)cc2sccc21` (configuration not stated) stands 16.4 µM [falling, single point]; under `CC(C)C(=O)Nc1ccc(NC(=O)c2ccc(COc3ccccc3)cc2)cc1`, 4.47 µM [rising, partial curve, poor fit]. On the same count and under the same terms, with `O=C(Cc1ccccc1Cl)Nc1nc2ccccc2[nH]1` the figure was 2.51 µM [falling, partial curve, poor fit]; with `Cc1sc(NC(=O)c2ccc(Cl)s2)c(C(N)=O)c1C`, 0.92 µM [falling, partial curve, poor fit].

Regarding `Cc1nn(-c2ccccc2)cc1/C=N/NC(N)=S`, the half-maximal activity concentration (AC50) under setting [1] was 15.8 µM [rising, single point]. `O=C1CC(N2CCOCC2)C(=O)N1c1ccc(Cl)cc1` (configuration not stated): under setting [1], the concentration at half-maximal activity (AC50) is 20 µM [rising, single point]. The same measure, in the same setting: under `O=Cc1c(Cl)nc2ccccn2c1=O` stands 17.8 µM [falling, single point]; under `CC1=NN(C(=O)Cc2ccc([N+](=O)[O-])cc2)C(O)(C(F)(F)C(F)(F)F)C1` (configuration not stated), 12.6 µM [falling, single point]. Still for that read-out and setting: with `COc1ccc(NC(=O)CCCc2ccccc2)c(OC)c1` the figure was 8.91 µM [rising, partial curve, poor fit]; with `COc1ccc(N(CC(O)CN2C(=O)NC(C)(C)C2=O)S(=O)(=O)c2ccc(C)cc2)cc1` (configuration not stated), 20.6 µM [rising, single point]. The same measure, in the same setting: with `Cc1oc(-c2ccccc2)cc1C(=O)NC1CCN(Cc2ccccc2)CC1` the figure was 35.5 µM [rising, single point]; with `Cc1nn(CCC#N)c(C)c1Oc1ccccc1O`, 5.62 µM [rising, single point]; with `CCN(CC)S(=O)(=O)c1ccc(C)c(NC(=S)Nc2cccc(S(=O)(=O)N3CCCCCC3)c2)c1`, 29.1 µM [falling, single point].

`C#CCNC(=O)C1=C[C@H](c2ccccc2)[C@@H](CCCO)[C@H](OCC)O1`: the concentration at half-maximal activity (AC50) under setting [1] is 14.1 µM [rising, single point]. On the same count and under the same terms, with `COc1ccc(C(=O)N2CCN(c3ccc(NC(=O)c4cccnc4)cc3)CC2)cc1` the figure was 11.2 µM [falling, single point].

Turning to `CCOC(=O)c1[nH]c(C)c(C(=O)OC)c1C`, under setting [1], the AC50 is 1.12 µM [rising, full curve]. Same read-out and setting: with `CC(C)(C)C(=O)NCCN1C(=O)S/C(=C\c2ccc([N+](=O)[O-])cc2)C1=O` the figure was 29.1 µM [falling, single point]; with `Cc1ccccc1C(=O)Nc1ccc(C(=O)N/N=C/c2ccccn2)cc1`, 3.55 µM [falling, full curve, poor fit]. Still for that read-out and setting: under `Cc1ccc(Cl)cc1N1CCN(C(=O)CCS(=O)(=O)c2cccc3nonc23)CC1` stands 4.61 µM [falling, full curve, poor fit].

With `CCOC(CCNC(=O)c1cc(-c2cccs2)nc2ccccc12)OCC`, the AC50 under setting [1] is 1.41 µM [rising, partial curve, poor fit]. With `O=C(/C(=C/O)N=Nc1ccccc1)c1ccco1`, the AC50 is, setting by setting: under setting [1], 11.2 µM [rising, partial curve]; under setting [2], 35.5 µM [falling, single point]. `O=C(O)c1ccccc1/C=N/Nc1ccc(S(=O)(=O)N2CCCC2)cc1[N+](=O)[O-]`: the AC50 under setting [1] was 6.31 µM [falling, single point]. On the same count and under the same terms, under `Cn1cnc([N+](=O)[O-])c1Sc1nc2ccccc2[nH]1` stands 3.55 µM [falling, partial curve, poor fit].

For orientation: AC50 means the concentration giving half of the maximal activity seen.
